Data from US11028052B2, “Compounds useful as modulators of TRPM8” (Firmenich Incorporated, priority 2013, dated 2021).

Tested on: panelists
Assay: Sensory study, cool line scale test vs WS-3 (section 3.2)
Assay type: in vivo, human
Conditions: for Average Bitterness: Table 3.3, n = 30
Experimental: Two typical sensory studies are described below each followed by a table summarizing sensory results of selected compounds of the invention (Tables 3.2 and 3.3).
All samples made with Low Sodium Buffer (LSB) pH ˜7.1 and contain 0.1% ethanol.
The test is a cool line scale test with timed 30 seconds interval. Compounds are rated on a 15 point line scale where 45 μM WS-3 (N-Ethyl-p-menthane-3-carboxamide) is ranked as a 5 in cool intensity. The present compound was tested to determine at what concentration the cooling intensity is equivalent to 45 μM WS-3. In each test, the panelist was presented with a 0 μM control sample, a 45 μM WS-3 control sample and the experimental compound sample and asked to rate the cooling intensity of each sample. Panelists were also asked to rate bitterness. In the table below there was no significant bitterness detected unless otherwise noted. Also, in the table below, n represents the number of tests completed for a given experiment (#panelists×#repetitions).

SMILES	Bitter offtastes (panel conclusion) (5 μM)	Average Bitterness (5 μM)	Average Bitterness (45 μM WS-3 control)
C[C@H](C(=O)N(C)CC(=O)c1ccccc1)C1CCCCC1 [Example 3.2, (S)-2-Cyclohexyl-N-methyl-N-(2-oxo-2-phenylethyl)propanamide]	no significant bitter offtastes	0.4	
CCNC(=O)C1CC(C)CCC1C(C)C (stereo not drawn) [WS-3, N-Ethyl-p-menthane-3-carboxamide, reference compound]			0.5
